The other results are listed elsewhere or left out. Many values rest on one well or one pass, so single values are uncertain.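 Cells were imaged in 1,536-well plates, and nuclei stained with an antibody against cleaved PARP were counted against all DNA-stained nuclei to give the apoptosis fraction. Screening doses were chosen to leave most cells alive, and resting and induced cleaved-PARP levels differ strongly between cell lines.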
Tests used:
Assay in all cases: cleaved PARP positive nuclei fraction relative to DMSO control; melanoma cells; higher = more apoptosis
Conditions in all cases: library dose: low library concentration; 72 h
WM115 = tested on: WM115
WM1716 = tested on: WM1716
WM1745 = tested on: WM1745
WM3526 = tested on: WM3526
WM3619 = tested on: WM3619
WM451Lu = tested on: WM451Lu

Row | Structure (SMILES) | cleaved PARP positive nuclei fraction (WM115) [%] | cleaved PARP positive nuclei fraction (WM1716) [%] | cleaved PARP positive nuclei fraction (WM1745) [%] | cleaved PARP positive nuclei fraction (WM3526) [%] | cleaved PARP positive nuclei fraction (WM3619) [%] | cleaved PARP positive nuclei fraction (WM451Lu) [%]
1 | O=C(O)c1ccc(-c2c[nH]c3ncc(-c4ccccc4)cc23)cc1C1CCCC1 + C/C(O)=C(\C#N)C(=O)Nc1cc(Br)ccc1Br [LFM-A13] (first compound 0.16 µM, partner dose 2 µM) | 98.7 | 69.1 | 102 | 59.8 | 88.7 | 121
2 | C[As](C)SC[C@H](NC(=O)CC[C@H](N)C(=O)O)C(=O)NCC(=O)O [Darinaparsin] + C[C@]1(c2nc3c(C(N)=O)cccc3[nH]2)CCCN1 [Veliparib] (first compound 0.4 µM, partner dose 1.4 µM) | 91.4 | 164 | 93.4 | 22.3 | 86.4 | 46.8
3 | COc1cc(Nc2ncc(F)c(Nc3ccc4c(n3)NC(=O)C(C)(C)O4)n2)cc(OC)c1OC [Tamatinib] + Cc1cc(SCc2sc(-c3ccc(C(F)(F)F)c(F)c3)nc2C)ccc1OCC(=O)O [GW0742] (first compound 0.4 µM, partner dose 2 µM) | 215 | 113 | 128 | 81.8 | 87 | 147
4 | Cc1ccc(NC(=O)c2cccc(N(C)C)c2)cc1NC(=O)c1ccc(O)cc1 + C/C(O)=C(\C#N)C(=O)Nc1cc(Br)ccc1Br [LFM-A13] (first compound 2 µM, partner dose 2 µM) | 73 | 98.5 | 119 | 73.3 | 88.7 | 108
5 | N.N.[Cl][Pt][Cl] [cisplatin] + CC(C)CCN1c2nc(Nc3cc(F)c(O)c(F)c3)ncc2N(C)C(=O)C1C [BID1870] (first compound 1.6 µM, partner dose 0.2 µM) | 126 | 101 | 86 | 76.7 | 124 | 89
6 | Cn1cc(C2=C(c3cn(C4CCN(Cc5ccccn5)CC4)c4ccccc34)C(=O)NC2=O)c2ccccc21 [Enzastaurin] + O=C(O)c1ccc2c(c1)nc(Nc1cccc(Cl)c1)c1ccncc12 [CX4945] (first compound 0.8 µM, partner dose 0.4 µM) | 196 | 141 | 96.5 | 38.5 | 92.8 | 53.9
7 | N.N.[Cl][Pt][Cl] [cisplatin] + Oc1cc(-c2nc(-c3ccccc3)[nH]c2-c2ccncc2)ccc1Cl [L779450] (first compound 1.6 µM, partner dose 0.2 µM) | 156 | 106 | 102 | 226 | 110 | 98.5
8 | N.N.[Cl][Pt][Cl] [cisplatin] + Clc1ccc(Nc2nnc(Cc3ccncc3)c3ccccc23)cc1 [vatalanib] (first compound 1.6 µM, partner dose 2 µM) | 68.8 | 56.6 | 101 | 79.4 | 115 | 129
9 | C[As](C)SC[C@H](NC(=O)CC[C@H](N)C(=O)O)C(=O)NCC(=O)O [Darinaparsin] + O=C(Nc1cccc(Cl)c1)Nc1ncc(CCNc2ncnc3ccsc23)s1 [SNS314] (first compound 0.4 µM, partner dose 0.0008 µM) | 268 | 18.7 | 79.4 | 114 | 92.1 | 32.6
10 | NC(=O)c1ccc(N(C(N)=O)c2c(F)cccc2F)nc1-c1ccc(F)cc1F + O=C(Oc1ccc([N+](=O)[O-])cc1)N1CCC(C(O)(c2ccc3c(c2)OCO3)c2ccc3c(c2)OCO3)CC1 [JZL184] (first compound 0.4 µM, partner dose 1 µM) | 71.8 | 49.5 | 97.1 | 89.4 | 87.9 | 36
11 | Cc1ccc(Nc2nccc(N(C)c3ccc4c(C)n(C)nc4c3)n2)cc1S(N)(=O)=O [Pazopanib] + N.N.[Cl][Pt][Cl] [cisplatin] (first compound 0.4 µM, partner dose 1.6 µM) | 91.6 | 73.7 | 107 | 46.4 | 99.6 | 53.8
12 | CC[C@]1(O)C[C@H]2CN(CCc3c([nH]c4ccccc34)[C@@](C(=O)OC)(c3cc4c(cc3OC)N(C=O)[C@H]3[C@@](O)(C(=O)OC)[C@H](OC(C)=O)[C@]5(CC)C=CCN6CC[C@]43[C@@H]65)C2)C1 [vincristine] + C[C@]12O[C@H](C[C@]1(O)CO)n1c3ccccc3c3c4c(c5c6ccccc6n2c5c31)CNC4=O [Lestaurtinib] (first compound 0.0001 µM, partner dose 0.004 µM) | 760 | 101 | 106 | 99.6 | 204 | 116
13 | N.N.[Cl][Pt][Cl] [cisplatin] + Cc1cc(N2CCOCC2)cc2[nH]c(-c3c(NC[C@@H](O)c4cccc(Cl)c4)cc[nH]c3=O)nc12 [BMS536924] (first compound 1.6 µM, partner dose 0.2 µM) | 110 | 83.6 | 146 | 63.8 | 120 | 57.5
14 | C#Cc1cccc(Nc2ncnc3cc(OCCOC)c(OCCOC)cc23)c1 [erlotinib] + C/C(O)=C(\C#N)C(=O)Nc1cc(Br)ccc1Br [LFM-A13] (first compound 0.8 µM, partner dose 2 µM) | 122 | 97.5 | 127 | 70.7 | 76.6 | 184
15 | C[C@]12O[C@H](C[C@]1(O)CO)n1c3ccccc3c3c4c(c5c6ccccc6n2c5c31)CNC4=O [Lestaurtinib] + CN1CCN(c2ccc3nc(-c4c(N)c5c(F)cccc5[nH]c4=O)[nH]c3c2)CC1 [Dovitinib] (first compound 0.004 µM, partner dose 0.1 µM) | 222 | 387 | 108 | 115 | 1040 | 54.1
16 | Cn1cc(C2=C(c3cn(C4CCN(Cc5ccccn5)CC4)c4ccccc34)C(=O)NC2=O)c2ccccc21 [Enzastaurin] + Cc1cc(N2CCOCC2)cc2[nH]c(-c3c(NC[C@@H](O)c4cccc(Cl)c4)cc[nH]c3=O)nc12 [BMS536924] (first compound 0.8 µM, partner dose 0.2 µM) | 83.4 | 43.4 | 238 | 58.8 | 101 | 93.5
17 | Cn1cc(C2=C(c3cn(C4CCN(Cc5ccccn5)CC4)c4ccccc34)C(=O)NC2=O)c2ccccc21 [Enzastaurin] + C[C@@H]1CCN(C(=O)CC#N)C[C@@H]1N(C)c1ncnc2[nH]ccc12 [CP690550] (first compound 0.8 µM, partner dose 1 µM) | 21.5 | 79.6 | 88.8 | 122 | 90.1 | 32.8
18 | Cn1cc(C2=C(c3cn(C4CCN(Cc5ccccn5)CC4)c4ccccc34)C(=O)NC2=O)c2ccccc21 [Enzastaurin] + CC(=O)O[C@@]12CO[C@@H]1C[C@H](O)[C@@]1(C)C(=O)[C@H](O)C3=C(C)[C@@H](OC(=O)[C@H](O)[C@@H](NC(=O)OC(C)(C)C)c4ccccc4)C[C@@](O)([C@@H](OC(=O)c4ccccc4)[C@H]21)C3(C)C [Docetaxel] (first compound 0.8 µM, partner dose 0.0001 µM) | 190 | 192 | 179 | 729 | 133 | 56
19 | Cc1cc(Nc2cc(N3CCN(C)CC3)nc(Sc3ccc(NC(=O)C4CC4)cc3)n2)n[nH]1 [Tozasertib] + Cn1cc(C2=C(c3cn(C4CCN(Cc5ccccn5)CC4)c4ccccc34)C(=O)NC2=O)c2ccccc21 [Enzastaurin] (first compound 0.006 µM, partner dose 0.8 µM) | 140 | 157 | 118 | 40.5 | 105 | 45.4
20 | O=C(Nc1cccc(Cl)c1)Nc1ncc(CCNc2ncnc3ccsc23)s1 + C/C(O)=C(\C#N)C(=O)Nc1cc(Br)ccc1Br [LFM-A13] (first compound 0.0008 µM, partner dose 2 µM) | 102 | 108 | 117 | 73.9 | 102 | 110
21 | C[C@@H](N)c1ccc(C(=O)Nc2ccnc3[nH]ccc23)cc1 + C[C@]12O[C@H](C[C@]1(O)CO)n1c3ccccc3c3c4c(c5c6ccccc6n2c5c31)CNC4=O [Lestaurtinib] (first compound 0.4 µM, partner dose 0.004 µM) | 102 | 98.3 | 111 | 47.5 | 83.1 | 44.4

From entry 12 up to 17, as listed above:
Row | Structure (SMILES) | cleaved PARP positive nuclei fraction (WM115) [%] | cleaved PARP positive nuclei fraction (WM1716) [%] | cleaved PARP positive nuclei fraction (WM1745) [%] | cleaved PARP positive nuclei fraction (WM3526) [%] | cleaved PARP positive nuclei fraction (WM3619) [%] | cleaved PARP positive nuclei fraction (WM451Lu) [%]
12 | CC[C@]1(O)C[C@H]2CN(CCc3c([nH]c4ccccc34)[C@@](C(=O)OC)(c3cc4c(cc3OC)N(C=O)[C@H]3[C@@](O)(C(=O)OC)[C@H](OC(C)=O)[C@]5(CC)C=CCN6CC[C@]43[C@@H]65)C2)C1 [vincristine] + C[C@]12O[C@H](C[C@]1(O)CO)n1c3ccccc3c3c4c(c5c6ccccc6n2c5c31)CNC4=O [Lestaurtinib] (first compound 0.0001 µM, partner dose 0.004 µM) | 760 | 101 | 106 | 99.6 | 204 | 116
13 | N.N.[Cl][Pt][Cl] [cisplatin] + Cc1cc(N2CCOCC2)cc2[nH]c(-c3c(NC[C@@H](O)c4cccc(Cl)c4)cc[nH]c3=O)nc12 [BMS536924] (first compound 1.6 µM, partner dose 0.2 µM) | 110 | 83.6 | 146 | 63.8 | 120 | 57.5
14 | C#Cc1cccc(Nc2ncnc3cc(OCCOC)c(OCCOC)cc23)c1 [erlotinib] + C/C(O)=C(\C#N)C(=O)Nc1cc(Br)ccc1Br [LFM-A13] (first compound 0.8 µM, partner dose 2 µM) | 122 | 97.5 | 127 | 70.7 | 76.6 | 184
15 | C[C@]12O[C@H](C[C@]1(O)CO)n1c3ccccc3c3c4c(c5c6ccccc6n2c5c31)CNC4=O [Lestaurtinib] + CN1CCN(c2ccc3nc(-c4c(N)c5c(F)cccc5[nH]c4=O)[nH]c3c2)CC1 [Dovitinib] (first compound 0.004 µM, partner dose 0.1 µM) | 222 | 387 | 108 | 115 | 1040 | 54.1
16 | Cn1cc(C2=C(c3cn(C4CCN(Cc5ccccn5)CC4)c4ccccc34)C(=O)NC2=O)c2ccccc21 [Enzastaurin] + Cc1cc(N2CCOCC2)cc2[nH]c(-c3c(NC[C@@H](O)c4cccc(Cl)c4)cc[nH]c3=O)nc12 [BMS536924] (first compound 0.8 µM, partner dose 0.2 µM) | 83.4 | 43.4 | 238 | 58.8 | 101 | 93.5
17 | Cn1cc(C2=C(c3cn(C4CCN(Cc5ccccn5)CC4)c4ccccc34)C(=O)NC2=O)c2ccccc21 [Enzastaurin] + C[C@@H]1CCN(C(=O)CC#N)C[C@@H]1N(C)c1ncnc2[nH]ccc12 [CP690550] (first compound 0.8 µM, partner dose 1 µM) | 21.5 | 79.6 | 88.8 | 122 | 90.1 | 32.8

— the supplement of paper PMC4604168 (melanoma cell lines)
